Source: patent publication US11696956B2 (BicycleTx Limited, priority 2017, dated 2023)

Assay: general procedure: Fmoc solid-phase peptide synthesis; Rink Amide MBHA (0.4-[…]); DIC/HOAt
Conditions: whole synthesis
[1] = bicyclic, sequence written open

Row | Substance | final purity (method not given) [%] | isolated yield [%] | isolated mass (scale 1.11 g of resin) [mg] | final purity (method not given) [1] [%] | isolated yield [1] [%] | isolated mass (scale 8.0 g of resin, bicyclic, sequence written open) [mg] | isolated mass (scale 1.19 g of resin, bicyclic, sequence written open) [mg]
1 | (β-Ala)-Sar10-A(D-Arg)DC(HyP)LVNPLCL(D-3,3-DPA)P(D-Asp)W(HArg)C | 97.91 | 7.3 | 120.0 | – | – | – | –
2 | (β-Ala)-Sar10-A(HArg)D-Ci(HyP)LVNPLCiiLHP(D-Asp)W(HArg)Ciii | – | – | – | 99.2 | 16.3 | 2100 | –
3 | A(HArg)DCPLVNPLCLHPGWTC | – | – | – | 95.05 | 16.8 | – | 189.9
